Measurements reported in patent US12138256B2, “Treatment of cardiopulmonary disorders” (Bayer Aktiengesellschaft, priority 2021, dated 2024).
Some of these results come from one statement about several compounds together.

Tests used:
[1] = Aerodynamic particle size distribution by cascade impaction: fine particle dose (FPD) and fine particle fraction (FPF); assay type: physicochemical; details: targets: FPF ≥20% of nominal dose, ≥30% of DD
[2] = test system: thromboxane analog U46619 induced PAH in minipigs; test: Haemodynamics (PAP, BP) in the anesthetized thromboxane challenged PAH minipig after inhaled (nebulized) application (C-2.1); assay type: in vivo, Göttingen minipig; details: for duration of action: inhaled, nominal dose of 100 μg/kg; for duration of action (PAP decrease): after inhaled application (nebulization), comparative example 11 30 μg/kg, Cinaciguat 3 and 10 μg/kg, Riociguat 100 μg/kg, comparative example 3 30 μg/kg, observation interval 240 min
Experimental: Experiments were carried out in anesthetized Göttingen minipigs, anesthetized rats and conscious, telemetrically instrumented dogs. Acute pulmonary hypertension was induced for example by infusion of a thromboxane A2 analogon, by acute hypoxia treatment or hypoxia treatment over a number of weeks and/or by administration of monocrotaline. Test substances were applied via nebulization using the Nebutec® or Aeroneb® Pro nebulizer system, and/or by means of powder and/or solution applicators for experimental intratracheal administration (Liquid MicroSprayer®, Dry Powder Insufflator™, MicroSprayer®, Penn-Century Inc., Wyndmoor, PA, USA) or after solid nebulization inserted into the inspiration arm of the ventilation. Compounds were employed as solids or solutions depending on the molecular structure and the technical possibility depending on the experiment. The haemodynamic signals were recorded and evaluated by means of pressure transducers/amplifiers (Combitransducer B. Braun, Melsungen, Germany or CardioMEMS Inc., Atlanta, GA, USA) and Ponemah® or CardioMems® as data aquisition software. After long-term experiments (for example monocrotaline rat), it is also possible to carry out a histological evaluation.
Healthy Gottingen Minipigs® Ellegaard (Ellegaard, Denmark) of both sexes and having a weight of 2-6 kg were used. The animals were sedated by i.m. administration of about 25 mg/kg ketamine and about 10 mg/kg azaperone. Anaesthesia was initiated by i.v. administration of about 2 mg/kg ketamine and about 0.3 mg/kg midazolam. Maintenance of anaesthesia was by i.v. administration of about 7.5-30 mg/kg/h ketamine and about 1-4 mg/kg/h midazolam (rate of infusion 1-4 ml/kg/h) and about 150 μg/kg/h pancuronium bromide (for example Pancuronium-Actavis). After intubation, the animals were ventilated by the ventilator at a constant respiratory volume (10-12 ml/kg, 35 breaths/min; Avea®, Viasys Healthcare, USA, or Engstrom Carestation, GE Healthcare, Freiburg, Germany) such that an end-tidal CO2 concentration of about 5% was achieved. Ventilation was performed with room air, enriched with about 40% oxygen (normoxia). For the measurement of the haemodynamic parameters such as pulmonary arterial pressure (PAP), blood pressure (BP) and heart rate (HR), catheters were inserted into the carotid artery to measure the blood pressure, and a Swan-Ganz® catheter was introduced in a flow-directed manner via the jugular vein into the pulmonary artery. The haemodynamic signals were recorded and evaluated by means of pressure transducers (Combitransducer, B. Braun, Melsungen, Germany)/amplifiers and Ponemah® as data aquisition software. […]

[3] = test system: guinea pig trachea pre-contracted with carbachol; test: Bronchorelaxation in vitro: carbachol pre-contracted guinea pig trachea rings, wash-out recovery factor (C-3.1); details: 1 h incubation time
Experimental: Male Dunkin Hartley guinea pig were euthanized using carbon dioxide. The primary bronchus was removed and placed in ice-cold Krebs-Henseleit buffer of following composition (in mmol/l): […] For recording of isometric tension, the bronchial rings were mounted between two hooks. One hook was connected to a force transducer the other was moveable and allowed a precise adjustment of resting tension at 1.5 g. During the equilibration period of 60 min the tissue was washed every 20 min with buffer. […] After 30 min, a cumulative dose response curve of the test compound was constructed. Every concentration was incubated till the response was stable. […] The relaxation was expressed as percentage tension. […] The recovery factor was calculated as a ratio of bronchodilation 1 h after compound application and bronchodilation 1 h after removal (wash out) of test compound. […] Relaxation via Cinaciguat (comparative example 1) and Riociguat (comparative example 2) reached a steady state within the 1 h incubation time. […] In contrast, relaxation induced by comparative example 11 was further progressing during the wash out period (recovery factor 1.41).

Row | Molecule | aerosol performance (DD, FPD, FPF) of filled capsules [1] | duration of action [2] | time to steady state of relaxation [3] | duration of action (PAP decrease) [2]
1 | 5-[(4-carboxybutyl)(2-[2-({4-[5-(trifluoromethyl)-1,3-benzoxazol-2-yl]benzyl}oxy)phenyl]ethyl)amino]-5,6,7,8-tetrahydroquinoline-2-carboxylic acid [comparative example 7] | failed to meet the FPF % targets |  |  | 
2 | 5-[(4-carboxybutyl){2-[2-({4-[5-(trifluoromethoxy)-1,3-benzoxazol-2-yl]benzyl}oxy)phenyl]ethyl}-amino]-5,6,7,8-tetrahydroquinoline-2-carboxylic acid [comparative example 8] | failed to meet the FPF % targets |  |  | 
3 | O=C(O)c1ccc(CCN(CCc2cc(F)ccc2OCc2ccc(-c3nc4cc(Cl)ccc4o3)cc2)C2CCCc3nc(C(=O)O)ccc32)cc1 (single isomer, unassigned) [comparative example 4, 5-{[2-(4-Carboxyphenyl)ethyl][2-(2-{[4-(5-chloro-1,3-benzoxazol-2-yl)benzyl]oxy}-5-fluorophenyl)-ethyl]amino}-5,6,7,8-tetrahydroquinoline-2-carboxylic acid] |  | at least 4 hrs |  | 
4 | O=C(O)CCCCN(CCc1ccccc1OCc1ccc(CCc2ccccc2)cc1)Cc1ccc(C(=O)O)cc1 [comparative example 1, 4-[((4Carboxybutyl)-{2-[(4-phenethylbenzyl)oxy]phenethyl}amino)methyl]benzoic acid] |  |  | ≤ 1 h | ≤ 120 min
5 | COC(=O)N(C)c1c(N)nc(-c2nn(Cc3ccccc3F)c3ncccc23)nc1N [comparative example 2, Methyl-4,6-diamino-2-[1-(2-fluorobenzyl)-1H-pyrazolo[3,4-b]pyridine-3-yl]-5-pyrimi-dinyl(methyl)carbamate, reference compound] |  |  | ≤ 1 h | ≤ 120 min
6 | O=C(O)c1ccc(CCN(CCc2ccccc2OCc2ccc(-c3ccc(C(F)(F)F)cc3)cc2Cl)[C@H]2CCCc3nc(C(=O)O)ccc32)cc1 [comparative example 11, (5S)-5-{[2-(4-carboxyphenyl)ethyl][2-(2-{[3-chloro-4′-(trifluoromethyl)[biphenyl]-4-yl]methoxy}phenyl)ethyl]amino}-5,6,7,8-tetrahydroquinoline-2-carboxylic acid] |  | at least 4 hrs |  | 
